This is an account of results in publication PMC4990422, “Coupling between the DEAD-box RNA helicases Ded1p and eIF4A” (eLife, 2016).

Protein sequences, listed by entry. Tags and fused reporters are not part of them. Lines headed by an entry give the natural chain unless they say otherwise; changes in a name come on top.
UniProt P06634: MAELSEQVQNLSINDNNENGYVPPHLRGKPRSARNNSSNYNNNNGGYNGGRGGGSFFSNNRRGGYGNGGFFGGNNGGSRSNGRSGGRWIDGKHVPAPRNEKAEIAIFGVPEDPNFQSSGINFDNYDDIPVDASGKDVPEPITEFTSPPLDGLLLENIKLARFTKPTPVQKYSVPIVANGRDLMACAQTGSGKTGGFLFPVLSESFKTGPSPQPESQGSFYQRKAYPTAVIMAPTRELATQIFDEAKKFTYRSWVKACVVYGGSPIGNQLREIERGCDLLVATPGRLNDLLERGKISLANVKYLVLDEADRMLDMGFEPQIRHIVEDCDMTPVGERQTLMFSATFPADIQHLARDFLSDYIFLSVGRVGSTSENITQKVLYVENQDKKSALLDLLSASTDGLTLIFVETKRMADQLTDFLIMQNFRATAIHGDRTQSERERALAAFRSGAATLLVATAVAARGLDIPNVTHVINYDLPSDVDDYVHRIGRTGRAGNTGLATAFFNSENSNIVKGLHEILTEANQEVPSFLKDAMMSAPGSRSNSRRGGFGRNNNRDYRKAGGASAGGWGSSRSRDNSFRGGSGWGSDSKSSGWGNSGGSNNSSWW

Construct, isoform or probe ends are uncertain for at least one entry. At least one verdict was read from the data and is not stated in words by the source.

This series deals with Ded1p WT (Saccharomyces cerevisiae) (UniProt P06634). Kind of series: RNA-stimulated ATPase, RNA titration (apparent affinity, Michaelis-Menten). The note with it: ATP, 30 and 37 C; RNA-stimulated ATPase at 30 and 37 C; recombinant protein; protein details: N-terminal His6.

With “GCGUCUUUACGGUGCUUAAAACAAAACAAAACAAAACAAAA / AGCACCGUAAAGACGC [16 bp, 25 nt 3'-overhang RNA]”, the binding result is “binds”.
